Paper PMC6991692
No constants are given. Whether binding was seen depends on the method and setting. Binding seen in cells or lysates may run through a third protein. Some results given as binding are weak or reduced against the parent protein; the word gives no strength.

By UniProt entry, the sequences of proteins in these tests, tags left out.
UniProt Q8BGW2: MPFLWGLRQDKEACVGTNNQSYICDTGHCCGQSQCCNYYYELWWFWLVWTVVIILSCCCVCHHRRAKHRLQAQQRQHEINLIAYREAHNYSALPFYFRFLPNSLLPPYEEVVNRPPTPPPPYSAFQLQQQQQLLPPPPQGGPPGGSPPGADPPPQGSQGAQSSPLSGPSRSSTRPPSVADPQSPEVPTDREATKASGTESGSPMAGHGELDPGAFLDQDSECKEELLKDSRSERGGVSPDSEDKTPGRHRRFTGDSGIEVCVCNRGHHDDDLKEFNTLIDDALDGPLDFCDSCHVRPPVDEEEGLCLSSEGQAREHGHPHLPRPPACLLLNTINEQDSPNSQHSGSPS
UniProt Q9DBH0: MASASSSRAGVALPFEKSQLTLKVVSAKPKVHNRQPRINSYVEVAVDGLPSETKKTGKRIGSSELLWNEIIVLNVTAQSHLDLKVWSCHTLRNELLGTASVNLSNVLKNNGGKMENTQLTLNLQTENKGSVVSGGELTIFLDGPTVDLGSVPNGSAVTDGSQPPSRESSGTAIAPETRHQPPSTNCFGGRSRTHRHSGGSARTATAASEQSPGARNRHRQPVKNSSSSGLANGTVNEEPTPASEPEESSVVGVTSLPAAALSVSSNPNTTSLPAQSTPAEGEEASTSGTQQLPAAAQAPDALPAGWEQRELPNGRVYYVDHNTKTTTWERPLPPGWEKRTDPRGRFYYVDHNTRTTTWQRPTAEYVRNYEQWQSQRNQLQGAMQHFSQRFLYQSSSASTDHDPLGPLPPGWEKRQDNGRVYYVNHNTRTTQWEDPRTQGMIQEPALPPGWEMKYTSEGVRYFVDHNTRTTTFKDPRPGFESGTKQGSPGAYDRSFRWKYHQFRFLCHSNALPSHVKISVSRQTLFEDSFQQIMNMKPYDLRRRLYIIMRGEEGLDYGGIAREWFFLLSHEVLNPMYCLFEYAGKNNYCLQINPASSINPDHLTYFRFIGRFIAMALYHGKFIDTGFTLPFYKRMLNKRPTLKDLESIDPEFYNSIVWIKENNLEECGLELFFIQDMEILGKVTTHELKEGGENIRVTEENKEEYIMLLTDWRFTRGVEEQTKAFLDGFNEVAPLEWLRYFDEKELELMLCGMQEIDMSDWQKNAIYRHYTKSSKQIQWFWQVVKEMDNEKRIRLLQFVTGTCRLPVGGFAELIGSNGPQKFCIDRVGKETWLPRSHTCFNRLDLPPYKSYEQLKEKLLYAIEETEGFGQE
UniProt Q8C863: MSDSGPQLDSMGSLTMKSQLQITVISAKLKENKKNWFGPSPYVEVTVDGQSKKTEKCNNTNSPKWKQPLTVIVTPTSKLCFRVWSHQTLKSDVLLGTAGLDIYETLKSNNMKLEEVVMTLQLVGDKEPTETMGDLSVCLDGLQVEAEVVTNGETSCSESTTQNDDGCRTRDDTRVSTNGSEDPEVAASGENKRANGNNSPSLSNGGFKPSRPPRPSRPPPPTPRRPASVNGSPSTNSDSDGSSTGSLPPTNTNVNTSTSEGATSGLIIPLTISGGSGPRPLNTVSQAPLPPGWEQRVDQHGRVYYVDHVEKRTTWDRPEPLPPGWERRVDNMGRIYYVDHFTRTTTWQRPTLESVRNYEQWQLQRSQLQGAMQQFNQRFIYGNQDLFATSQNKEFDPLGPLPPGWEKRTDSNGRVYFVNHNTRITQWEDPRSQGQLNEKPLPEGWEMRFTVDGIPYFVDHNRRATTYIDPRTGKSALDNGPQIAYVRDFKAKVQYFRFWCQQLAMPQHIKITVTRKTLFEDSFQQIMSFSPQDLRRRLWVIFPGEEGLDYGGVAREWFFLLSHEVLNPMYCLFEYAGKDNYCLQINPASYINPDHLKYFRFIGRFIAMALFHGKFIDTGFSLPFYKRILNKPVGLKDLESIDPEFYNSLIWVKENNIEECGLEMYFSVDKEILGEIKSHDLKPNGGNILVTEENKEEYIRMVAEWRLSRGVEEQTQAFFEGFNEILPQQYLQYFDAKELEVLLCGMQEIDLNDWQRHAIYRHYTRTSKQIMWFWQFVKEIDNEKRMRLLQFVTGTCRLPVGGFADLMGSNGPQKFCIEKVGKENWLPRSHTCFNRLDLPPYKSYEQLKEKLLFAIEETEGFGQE

What was measured:
[1] = target: WBP1L‐Myc (wild‐type WBP1L construct) (UniProt Q8BGW2); experiment: co-IP; HEK293 cells transfected with WBP1L‐Myc or WBP1LΔN‐Myc together with ITCH or WWP2; WBP1L immunoprecipitation, immunoblot with antibody to ITCH or WWP2
[2] = target: wild‐type WBP1L expressed in J774 macrophage‐like cell line (UniProt Q8BGW2); experiment: co-IP; J774 macrophage‐like cell line expressing wild‐type WBP1L or WBP1LΔN; endogenous ITCH co‐isolated (Figure S5)
[3] = target: WBP1L, endogenous in bone marrow‐derived macrophages (mouse (endogenous in BMDM)) (UniProt Q8BGW2); experiment: co-IP; endogenous proteins; WBP1L immunoprecipitates from WT or Wbp1l−/− BMDM immunoblotted with antibody to WWP1 and WBP1L

| binding [1] | Substance | further results |
| --- | --- | --- |
| binds | WWP2, co‐expressed in HEK293 cells (from UniProt Q9DBH0 1-870) (enzyme) |  |
| binds | ITCH, co‐expressed in HEK293 cells (from UniProt Q8C863 1-864) (enzyme) |  |
|  | ITCH, endogenous (from UniProt Q8C863 1-864) (enzyme) | binding [2]: binds |
|  | WWP1, endogenous (from UniProt Q8BZZ3 1-918) (enzyme) | binding [3]: binds |
